Experimental data from the supplement of paper PMC10338343.
± gives the standard deviation. The list shows a part of the results, in another mix than the full data. The uncertainty is large for many entries.

How the values were obtained:
[1] = system: MILI (PIWIL2) piRISC loaded with piRNA #1 (26 nt); assay: pre-steady-state target cleavage rate (min^-1); MIWI and MILI are mouse PIWI proteins and EfPiwi is from a freshwater sponge; tags in brackets are library labels; higher = faster piRNA-guided slicing of the target; conditions: guide: piRNA #1 5'p-UGAGGUAGUAGGUUGUAUAGUAUCCA; auxiliary factor: 500 nM mouse GTSF1
Procedure, shortened: (§1)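 Reactions were run for 0–8 or 0–960 min at 33 °C in HEPES–potassium acetate buffer, combining 1 nM active affinity-purified piRISC with one synthetic guide, […] transcribed, DNA-blocked target RNA library and, in some cases, 500 nM GTSF1 partner protein. Sequencing of uncleaved targets followed, with normalisation to depth and to weakly complementary targets. Three trials were pooled, k3 was capped at 0.0001 min^-1, and the pre-steady-state cleavage rate was taken from a burst-and-steady-state fit.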

[2] = system: MIWI (PIWIL1) piRISC loaded with piRNA #1 (30 nt); assay: as above; conditions: guide: piRNA #1 5'p-UGAGGUAGUAGGUUGUAUAGUAUCCAGAGG; auxiliary factor: 500 nM mouse GTSF1
Procedure, shortened: as §1
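Further: 1 nM active piRISC with 0.1 nM target library at 33 °C single turnover.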

Sequence	pre-steady-state target cleavage rate [1]	pre-steady-state target cleavage rate [2]
GGAGACCUAUGAUAUCAUCCUUCUACCUCA	0.00121 ± 0.0054	0.00027 ± 0.0092
GGAGACCUAUGAAUACACCCUACUACCUCA	0.00267 ± 0.0034	0.00213 ± 0.0031
GGAGACCUAUGAUUACAACCUGCUACCUCA	0.00186 ± 0.0046	0.00127 ± 0.0039
GGAGACCUAUGAAUACAAGCUUCUACCUCA	0.0038 ± 0.002	0.000805 ± 0.0039
